Assay results reported in PubChem BioAssay AID1347426 (Functional Genomics Laboratory (NCATS/FGL), 2020).
The whole screen tested about 31,000 sequences, of which about 1,400 (4.5%) were called active.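 Rule for the calls: active = median seed-adjusted z-score above 1 or below -1; inactive = the rest.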 This is one part of the list.

Test: Novel Modifiers of Survival Motor Neuron (SMN) Protein: Gene Identification via Genome-wide siRNA Screen;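 note: luminescence tracks full-length SMN protein made from the SMN2 reporter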
Details: HEK293T SMN2-luciferase reporter, siRNA knockdown, 72 h; actives lie on both sides
Procedure, shortened: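 siRNA screen, 10418 genes ×3 siRNAs; 1 pmol/well, lipid reverse transfection into HEK293T SMN2-luc reporter line. 72 h, 37 °C, 5% CO2; ONE-Glo readout. Data: neg-ctrl normalized, log10, MAD; hit = MAD >1.0 or < -1.0.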

Sequence	median seed-adjusted z-score
GUACAAGGUUUACAAGUAATT against RBBP8	inactive: 0.323
GAAUAUGCAUUGCUAACCATT against SV2C	inactive: 0.183
CACUCGUCUGUGCAAAAUATT against ZC3HC1	inactive: -0.859
CUCCAACAGUUAAUCGGGATT against USP8	inactive: 0.743
ACAGAGAUCCGUCCACAAATT against NR1H3	inactive: 0.426
GGCUAAUUCUAGAUGACAATT against RXFP2	inactive: 0.511
GGAGUUGUUCAAGUAGAAATT against GNL2	inactive: 0.739
GGAAAAUUGACAAUGUUGATT against ENTPD6	inactive: 0.438
GCUUUGUGCUCAUUACCUUTT against SMO	inactive: -0.457
GUAGGACAGUAGAAACUGATT against ZNF81	inactive: 0.178
GUAUCGCAUUUCUACAGCATT against SAMHD1	active: -1.33
GACUAAAUCAGUUACCGAATT against MED17	active: -2.06
AAAGGACUCAGCUUCCUUATT against TYSND1	inactive: -0.0298
GAGCCGAGGAAAUAGCUUATT against MTCH2	inactive: -0.168
GGAACUACGUCCACACCCATT against GHRHR	inactive: 0
AGAGUUGCAUAGCCCAGUATT against RNASE10	inactive: -0.109
GUUCUUUGCGGAAAAUGAATT against THBS2	inactive: -0.721
CUGGAAGUGUUAUUCCUAATT against FOXD4L1	inactive: 0.271
GGAACAAGUUUUCAGGGUUTT against LCN10	inactive: 0
GGUGGUUCCUAUUCACCAATT against KCNJ8	inactive: 0.329
AGAUAUAGCUUCACAAUCUTT against BCL2L13	inactive: 0.311
CCACUGACAUUGAUCUCAATT against CIC	inactive: 0.756
GAACAAGACAGUUCGCAAATT against GPR161	inactive: -0.138

Sequence	median seed-adjusted z-score
GAACUAGUGAUAUCCGGAATT against EXOG	inactive: 0.746
GCUCUUGGAUUAAAAGGUATT against STAR	inactive: 0.478
ACAAAACAUUUCAGACUCATT against ZNF716	inactive: 0
GAACCUCUGCUCUUCAAGATT against LRRC4B	inactive: 0.288
GAAGAAGCCGUGAACUUCATT against ILKAP	inactive: 0
GAAACGGGAUUUUUCGAUUTT against OCA2	inactive: 0.457
GGUCUACACUGUGCAGGAATT against MAN2B2	inactive: 0.0555
GGUUGAUGCAGACAACAAATT against LGTN	inactive: 0.491
GGGUAGGUGAUAUCCAUAUTT against ZBTB5	inactive: 0.314
GAACGAGACAAGAAUCAGATT against EIF4E2	inactive: 0.0495
GCCGAAUCCUGAAGAGACATT against QTRTD1	inactive: 0.377
CCACAUCAACAGUGCCUUUTT against ACOT11	inactive: 0.636
GAUCAGGACUUUAUGUUCATT against ZNF225	inactive: 0.0761
CAGCAACCAAUGAUAUAUATT against POLR2K	active: -3.72
AGUACGGACAGAUCUCUGATT against CIRBP	inactive: -0.701
GGAUGCUCUUUGGAACAAATT against SLC2A12	inactive: -0.373
CAUCAAUGACUCACCCUUUTT against RTN4R	inactive: -0.536
CACUUGAAGAUCAUCCAAATT against MBTPS1	inactive: -0.551
CGUGUGCGAUCACCCGAAATT against KLK11	inactive: 0.0411
UCAUCGGCGUGAUCGUGUATT against CACNG8	inactive: 0.214
GAUUCACCAAUGUCAAACATT against GLCE	inactive: 0.752
CGGAAUCAUCUACACCUAUTT against CNR2	inactive: 0.33
CUAGAGUCGCUGUUGAAGATT against DRAP1	active: 1.08

15 entries from above, bar-delimited.
Sequence | median seed-adjusted z-score
GAAACGGGAUUUUUCGAUUTT against OCA2 | inactive: 0.457
GGUCUACACUGUGCAGGAATT against MAN2B2 | inactive: 0.0555
GGUUGAUGCAGACAACAAATT against LGTN | inactive: 0.491
GGGUAGGUGAUAUCCAUAUTT against ZBTB5 | inactive: 0.314
GAACGAGACAAGAAUCAGATT against EIF4E2 | inactive: 0.0495
GCCGAAUCCUGAAGAGACATT against QTRTD1 | inactive: 0.377
CCACAUCAACAGUGCCUUUTT against ACOT11 | inactive: 0.636
GAUCAGGACUUUAUGUUCATT against ZNF225 | inactive: 0.0761
CAGCAACCAAUGAUAUAUATT against POLR2K | active: -3.72
AGUACGGACAGAUCUCUGATT against CIRBP | inactive: -0.701
GGAUGCUCUUUGGAACAAATT against SLC2A12 | inactive: -0.373
CAUCAAUGACUCACCCUUUTT against RTN4R | inactive: -0.536
CACUUGAAGAUCAUCCAAATT against MBTPS1 | inactive: -0.551
CGUGUGCGAUCACCCGAAATT against KLK11 | inactive: 0.0411
UCAUCGGCGUGAUCGUGUATT against CACNG8 | inactive: 0.214

Next records:

Sequence	median seed-adjusted z-score
CCUCUCAUCUAGUAGAAGATT against MYB	inactive: 0.307
AGUGCAUCGCAUCUGCCUATT against RAB36	inactive: -0.348
GAACAGUGCUUGAGGAUAUTT against ANGPTL1	inactive: -0.556
GGAUCAACCAGACGGAAAATT against CELSR1	inactive: -0.466
GGAGAGUUAAGAUCAAUGUTT against KCNB2	active: 1.22
CCUGCACUAAAUUACUCAATT against COX5B	inactive: 0.45
GGACGGUCGUGAUGGAUAATT against SAFB2	inactive: 0.0394
GGAUCACUGCAAAACUCAATT against PFKP	inactive: -0.352
GGUUAGAGUUCACACUUGATT against ICMT	inactive: -0.0602
GCUUCCCUGCUAUUGCUUUTT against GPR176	inactive: 0.0782
CACUUAUACUAACGGUUAATT against DSG3	inactive: 0
GGUUGACAAAUGCAGGAUATT against RIOK2	inactive: -0.16
CGUUAUCUUCAGUACUGCATT against C3orf64	inactive: 0.0771
GCUAUGGACUGGUCAUUUATT against ATP8B3	inactive: 0
GCAAGUUUGGAAACGUGUATT against AURKB	inactive: 0.0901
GUGAUGUACUCAUUCAAGATT against USP20	inactive: -0.369
AAAGCAAAGUUCCAAGAGATT against ANXA13	inactive: -0.467
CCACAUCUAGCUCAACAUATT against ZNF43	inactive: 0.29
AGACCGUGAUUCCCAGGAATT against CNDP2	inactive: 0.43
GCAACUCAGUUGGUGGAUUTT against RAB39	inactive: -0.408
CCAUGCACUCAAUAAAGAATT against KLK6	inactive: 0.176
CGCAAGAGCAUGAUCAUCATT against KCNJ11	inactive: -0.567
AGAUCCACCUGAUGCAGAATT against SYT2	inactive: 0.243
